Test results published in publication PMC11603163.

T1: 3xF-tagged CLSY1 (Arabidopsis) (UniProt Q9M297)
T1 sequence: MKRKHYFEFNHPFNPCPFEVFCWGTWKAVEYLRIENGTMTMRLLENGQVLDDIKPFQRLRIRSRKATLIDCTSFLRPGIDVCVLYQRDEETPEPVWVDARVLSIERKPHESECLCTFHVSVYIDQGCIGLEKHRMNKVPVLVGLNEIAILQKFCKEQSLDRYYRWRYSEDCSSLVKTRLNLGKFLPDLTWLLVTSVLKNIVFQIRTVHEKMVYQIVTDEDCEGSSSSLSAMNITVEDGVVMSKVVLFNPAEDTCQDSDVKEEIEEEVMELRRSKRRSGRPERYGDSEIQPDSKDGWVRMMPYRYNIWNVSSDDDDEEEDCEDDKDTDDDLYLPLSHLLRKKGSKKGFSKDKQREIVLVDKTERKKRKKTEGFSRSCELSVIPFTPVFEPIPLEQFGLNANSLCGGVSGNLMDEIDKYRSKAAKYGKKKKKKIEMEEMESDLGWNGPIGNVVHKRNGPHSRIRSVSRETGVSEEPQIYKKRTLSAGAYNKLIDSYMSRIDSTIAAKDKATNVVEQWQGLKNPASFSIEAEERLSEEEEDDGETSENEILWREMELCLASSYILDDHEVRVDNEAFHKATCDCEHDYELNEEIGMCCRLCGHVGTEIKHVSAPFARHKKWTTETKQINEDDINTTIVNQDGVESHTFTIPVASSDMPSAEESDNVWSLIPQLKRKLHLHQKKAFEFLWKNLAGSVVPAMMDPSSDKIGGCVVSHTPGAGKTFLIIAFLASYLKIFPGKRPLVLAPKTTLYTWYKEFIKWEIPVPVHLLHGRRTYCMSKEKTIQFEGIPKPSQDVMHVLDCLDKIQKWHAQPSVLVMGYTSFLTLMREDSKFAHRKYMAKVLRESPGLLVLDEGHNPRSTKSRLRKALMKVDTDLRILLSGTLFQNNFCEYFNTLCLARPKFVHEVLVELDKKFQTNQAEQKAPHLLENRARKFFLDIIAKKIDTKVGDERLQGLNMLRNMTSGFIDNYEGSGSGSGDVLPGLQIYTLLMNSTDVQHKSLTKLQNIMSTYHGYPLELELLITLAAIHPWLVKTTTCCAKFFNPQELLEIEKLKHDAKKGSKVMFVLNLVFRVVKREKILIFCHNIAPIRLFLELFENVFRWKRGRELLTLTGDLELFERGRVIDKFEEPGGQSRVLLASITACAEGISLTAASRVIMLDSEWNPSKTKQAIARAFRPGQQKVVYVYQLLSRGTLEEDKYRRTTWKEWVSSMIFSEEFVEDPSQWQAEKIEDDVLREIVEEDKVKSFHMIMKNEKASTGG

T2: 3xF-tagged CLSY3 (Arabidopsis) (UniProt F4I8S3)
T2 sequence: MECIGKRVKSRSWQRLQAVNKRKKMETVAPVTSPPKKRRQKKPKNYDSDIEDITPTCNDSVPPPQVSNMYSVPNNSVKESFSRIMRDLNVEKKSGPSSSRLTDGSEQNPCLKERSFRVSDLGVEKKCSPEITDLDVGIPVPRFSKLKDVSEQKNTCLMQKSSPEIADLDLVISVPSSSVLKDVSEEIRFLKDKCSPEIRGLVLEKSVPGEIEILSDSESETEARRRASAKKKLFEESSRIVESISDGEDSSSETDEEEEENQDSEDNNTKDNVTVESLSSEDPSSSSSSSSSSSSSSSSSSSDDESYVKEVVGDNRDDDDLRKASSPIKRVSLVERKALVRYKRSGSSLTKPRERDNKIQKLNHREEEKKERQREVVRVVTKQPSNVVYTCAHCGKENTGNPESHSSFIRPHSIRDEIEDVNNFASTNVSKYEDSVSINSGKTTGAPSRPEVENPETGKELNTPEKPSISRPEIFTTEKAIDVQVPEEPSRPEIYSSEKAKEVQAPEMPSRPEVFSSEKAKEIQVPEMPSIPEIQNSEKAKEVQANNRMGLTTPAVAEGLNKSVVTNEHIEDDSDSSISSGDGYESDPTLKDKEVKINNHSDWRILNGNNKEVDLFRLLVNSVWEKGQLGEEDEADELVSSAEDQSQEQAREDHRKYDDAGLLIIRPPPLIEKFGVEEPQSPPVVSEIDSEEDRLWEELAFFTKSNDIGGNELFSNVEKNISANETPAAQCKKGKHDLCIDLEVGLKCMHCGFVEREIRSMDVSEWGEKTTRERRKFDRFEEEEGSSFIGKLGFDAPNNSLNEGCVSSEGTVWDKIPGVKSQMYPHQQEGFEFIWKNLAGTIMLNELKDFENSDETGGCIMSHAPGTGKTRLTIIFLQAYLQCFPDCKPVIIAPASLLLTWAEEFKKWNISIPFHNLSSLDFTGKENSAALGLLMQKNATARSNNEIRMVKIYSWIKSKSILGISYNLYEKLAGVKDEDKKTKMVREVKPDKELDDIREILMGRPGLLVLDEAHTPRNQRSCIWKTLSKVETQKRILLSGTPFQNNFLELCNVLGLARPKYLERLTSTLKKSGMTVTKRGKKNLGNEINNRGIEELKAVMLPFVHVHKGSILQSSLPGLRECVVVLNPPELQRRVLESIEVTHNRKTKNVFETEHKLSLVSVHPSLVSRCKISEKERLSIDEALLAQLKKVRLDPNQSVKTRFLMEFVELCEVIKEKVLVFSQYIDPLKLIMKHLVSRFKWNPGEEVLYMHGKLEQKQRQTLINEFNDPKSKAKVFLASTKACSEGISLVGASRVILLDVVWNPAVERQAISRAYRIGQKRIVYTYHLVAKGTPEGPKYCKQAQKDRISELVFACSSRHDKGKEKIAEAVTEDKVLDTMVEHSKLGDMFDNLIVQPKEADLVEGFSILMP

B1: SAWADEE HOMEODOMAIN HOMOLOG 1 (SHH1) (protein, UniProt Q9XI47 1-258)
chain: MAASDDSSHYFTEFTLSEIVDMENLYKELGDQSLHKDFCQTVASTFSCSVNRNGKSSITWKQVQIWFQEKLKHQSQPKSKTLPSPPLQIHDLSNPSSYASNASNATFVGNSTFVQTRKGKASDLADLAFEAKSARDYAWYDVSSFLTYRVLRTGELEVRVRFSGFDNRHDEWVNVKTSVRERSIPVEPSECGRVNVGDLLLCFQEREDQALYCDGHVLNIKRGIHDHARCNCVFLVRYELDNTEESLGLERICRRPEE
B2: CLASSY 2 (CLSY2) (protein, UniProt F4K493 1-1261)
chain: MKKRGFYNLKHPFDPCPFEFFCSGTWKPVEYMRIEDGMMTIRLLENGYVLEDIRPFQRLRLRSRKAALSDCICFLRPDIDVCVLYRIHEDDLEPVWVDARIVSIERKPHESECSCKINVRIYIDQGCIGSEKQRINRDSVVIGLNQISILQKFYKEQSTDQFYRWRFSEDCTSLMKTRLSLGKFLPDLSWLTVTSTLKSIVFQIRTVQTKMVYQIVTDEEGSSSTLSSMNITLEDGVSLSKVVKFNPADILDDSQDLEIKQETDYYQEEDEVVELRRSKRRNVRPDIYTGCDYEPDTIDGWVRMMPYQFGKCAVNVESDEDEDDNNEDGDTNDDLYIPLSRLFIKKKKTNSREAKPKSRKGEIVVIDKRRVHGFGRKERKSELSVIPFTPVFEPIPLEQFGLNANSFGGGGSFSRSQYFDETEKYRSKGMKYGKKMTEMEEMMEADLCWKGPNQVKSFQKRTSRSSRSVAPKTEDSDEPRVYKKVTLSAGAYNKLIDTYMNNIESTIAAKDEPTSVVDQWEELKKTNFAFKLHGDMEKNLSEDGEGETSENEMLWREMELCLASSYILDDNEVRVDNEAFEKARSGCEHDYRLEEEIGMCCRLCGHVGSEIKDVSAPFAEHKKWTIETKHIEEDDIKTKLSHKEAQTKDFSMISDSSEMLAAEESDNVWALIPKLKRKLHVHQRRAFEFLWRNVAGSVEPSLMDPTSGNIGGCVISHSPGAGKTFLIIAFLTSYLKLFPGKRPLVLAPKTTLYTWYKEFIKWEIPVPVHLIHGRRTYCTFKQNKTVQFNGVPKPSRDVMHVLDCLEKIQKWHAHPSVLVMGYTSFTTLMREDSKFAHRKYMAKVLRESPGLLVLDEGHNPRSTKSRLRKALMKVGTDLRILLSGTLFQNNFCEYFNTLCLARPKFIHEVLMELDQKFKTNHGVNKAPHLLENRARKLFLDIIAKKIDASVGDERLQGLNMLKNMTNGFIDNYEGSGSGSGDALPGLQIYTLVMNSTDIQHKILTKLQDVIKTYFGYPLEVELQITLAAIHPWLVTSSNCCTKFFNPQELSEIGKLKHDAKKGSKVMFVLNLIFRVVKREKILIFCHNIAPIRMFTELFENIFRWQRGREILTLTGDLELFERGRVIDKFEEPGNPSRVLLASITACAEGISLTAASRVIMLDSEWNPSKTKQAIARAFRPGQQKVVYVYQLLSRGTLEEDKYRRTTWKEWVSCMIFSEEFVADPSLWQAEKIEDDILREIVGEDKVKSFHMIMKNEKASTG

What was measured:
[1] = target: T1, 3xF-tagged CLSY1 (Arabidopsis); test: affinity purification with mass spectrometry; anti-Flag M2 magnetic beads on 10 g flowers of 3xF-tagged CLSY lines in their clsy mutant backgrounds; elution with 3x-FLAG peptide; compared to non-transgenic wild-type controls
[2] = target: T2, 3xF-tagged CLSY3 (Arabidopsis); test: as above

Row | Molecule | binding [1] | binding [2]
1 | RNA-… RNA POLYMERASE 2 (RDR2) (from UniProt O82504 1-1133) | binds | binds
2 | B1 | binds | no binding
3 | B2 | no binding | no binding

Results are given in words; binding and its absence hold for the method and conditions named. In cells and extracts the contact can be indirect. These calls come from enrichment with a bait or labelling near it, and not all partners need be listed. A no says only that the protein was not detected with the bait. Sequences can lack the tags named with a protein.
